Measurements taken from PMC3695902.
These are yes or no findings as the source states them, for the method shown. In cells and extracts the contact can be indirect. A result given as binding can be weak or reduced; the word gives no strength. Sequences can lack the tags named with a protein.

Key:
[1] = target: T1, GST-SIAH1 truncation, residues 91-157 (human) (UniProt Q8IUQ4); assay: pull-down; GST fusion protein bound to glutathione sepharose beads pulls down S-tagged protein from bacterial lysate; Western blot with HRP-conjugated anti-S-tag antibody; beads alone and GST-coated beads as controls; only the target purified
T1 sequence: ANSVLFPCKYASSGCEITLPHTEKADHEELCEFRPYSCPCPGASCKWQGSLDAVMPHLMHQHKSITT

[2] = target: T2, AUP1-GST fusion protein (residues 1-410) (human) (UniProt Q9Y679); assay: as above
T2 sequence: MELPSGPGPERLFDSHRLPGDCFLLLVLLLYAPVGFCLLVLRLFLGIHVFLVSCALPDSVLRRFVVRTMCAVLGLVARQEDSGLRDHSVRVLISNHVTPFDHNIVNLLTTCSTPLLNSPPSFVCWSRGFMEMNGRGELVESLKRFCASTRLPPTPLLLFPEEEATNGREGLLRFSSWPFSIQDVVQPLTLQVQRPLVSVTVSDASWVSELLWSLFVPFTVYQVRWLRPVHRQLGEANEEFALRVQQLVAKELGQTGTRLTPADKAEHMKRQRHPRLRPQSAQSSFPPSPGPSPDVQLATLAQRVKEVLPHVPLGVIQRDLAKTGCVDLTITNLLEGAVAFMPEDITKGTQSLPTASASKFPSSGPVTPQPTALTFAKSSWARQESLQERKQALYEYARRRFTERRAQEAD

binding [1]: binds | binding [2]: binds
Substance: S-tagged MOR-IL2 (residues 166-187, pET30a) (human) (domain or fragment)
